Here are results for one substance from PMC8128912.

The target in test [1] is centromere protein A (CENP-A), endogenous (human (endogenous in human primary melanocytes)) (UniProt P49450). The test is described as follows: co-IP; lysates of UVR-exposed human primary melanocytes; endogenous proteins; D5 anti-Mitf and EP800Y anti-CENP-A antibodies; also with alpha-MSH or UVB treatment (interaction enhanced).
For test [2] the target is unchanged. The test is described as follows: SEC; whole-cell lysates from HPMs on a Superdex 200 size-exclusion column; fractions analysed by SDS-PAGE and immunoblot. Background: In gel filtration, larger molecules generally elute earlier.

Results are given in words; binding and its absence hold for the method and conditions named. Binding calls can cover weak binding; strength is not graded here. For some assays here: Binding seen in cells or lysates may run through a third protein.

Turning to “microphthalmia-associated transcription factor (Mitf), endogenous (from UniProt O75030-9)”, the binding entry in test [1] and in test [2] was “binds” each time.
